According to publication PMC8917357:
No constants are given. Whether binding was seen depends on the method and setting. In cells and extracts the contact can be indirect. Binding calls can cover weak binding; strength is not graded here.

T1: Ada2b-PA (Drosophila melanogaster) (UniProt Q8I8V0)
T1 sequence: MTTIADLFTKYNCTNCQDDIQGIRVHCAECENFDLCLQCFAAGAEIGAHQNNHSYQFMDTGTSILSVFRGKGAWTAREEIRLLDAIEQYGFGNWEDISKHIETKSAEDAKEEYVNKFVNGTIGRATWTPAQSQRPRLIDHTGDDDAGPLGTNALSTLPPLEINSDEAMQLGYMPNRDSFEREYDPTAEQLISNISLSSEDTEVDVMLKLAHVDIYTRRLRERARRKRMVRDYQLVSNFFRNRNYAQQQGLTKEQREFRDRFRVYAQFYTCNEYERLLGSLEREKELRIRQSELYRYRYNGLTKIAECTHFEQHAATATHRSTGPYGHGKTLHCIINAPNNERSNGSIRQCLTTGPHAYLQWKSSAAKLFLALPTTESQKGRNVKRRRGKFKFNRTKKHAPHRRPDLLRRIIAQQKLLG

B1: Sgf29 (protein, UniProt Q9W2I4 1-289)
chain: MPLTAESAAQQIQDRLKDIQQNIHNVDEERRRAENSIASLVRSLHATNQKVKPLLKASLTEAAQEEATIRAALAKIHEIRSIRNERRIQARNAGNKEAIRRGALMKMVQLSAQTLPLFVGKLGERAPALCGAIPAEGNYVAKVGDNVAALAKGIDEEENWILAEVVQFLHRQNKYDVIDIDEEQKDRHVLSKRKVIPLPLMRANPETDGHALFPKDTVVMALYPQTTCFYKAIVHRLPQTATEDYEVLFEDSSYTNGYAEPLPVAQRYVIAYRPTKKGAGSGSGNLSSA

Experiments:
[1] = target: T1, Ada2b-PA (Drosophila melanogaster); assay: co-IP; subunits expressed in Sf21 cells using Baculovirus; His-FLAG-Ada2b-PA with a single other subunit, tested for direct interaction; western blots with anti-Gcn5, anti-Ada3, anti-Sgf29, anti-FLAG
[2] = target: Ada3 (Drosophila melanogaster); assay: co-IP; subunits expressed in Sf21 cells using Baculovirus; His-FLAG-Ada2b-PA with Sgf29 in the presence of Ada3; western blots with anti-Gcn5, anti-Ada3, anti-Sgf29, anti-FLAG

Molecule	binding [1]	binding [2]
Ada3 (Drosophila melanogaster)	binds	
B1		binds
